Data from PubChem BioAssay AID2685 (National Center for Advancing Translational Sciences (NCATS), 2010).
Some of the results follow. Further columns of the screen follow, without active or inactive calls. The list favours compounds with an active or inconclusive main result. Potencies come from curve fits of mixed quality, noted in brackets.

Test: qHTS Assay for Lipid Storage Modulators in Drosophila S3 Cells;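 for cell number change: cells counted by Cell Tracker Red CMTPX staining in the red channel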
Settings: BODIPY lipid droplet fluorescence, 18-24 h; for cell number change: measured here: cell count max response, cells fed with added oleic acid
How it was run: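 Drosophila S3 cells got compounds at several concentrations plus oleic acid (400 uM solution). Laser-scanning cytometry with 488 nm excitation read lipid droplets at 500-530 nm and cells at 575-640 nm. Percent activity was relative to 20 uM Triacsin C.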

[1] = measured here: cell number channel AC50, cells fed with added oleic acid
[2] = measured here: lipid fluorescence (Fed channel) AC50, cells fed with added oleic acid

SMILES	cell number change	AC50 [1]	AC50 [2]
CCCCN(C(=O)CSCc1c(C)noc1C)c1c(N)n(CCCC)c(=O)[nH]c1=O	-25%	0.00461 µM [falling, full curve, poor fit]	29.1 µM [rising, single point]
COc1ccc(-c2cc(C(=O)N3CCCCCC3)no2)cc1OC	-6.09%		
COc1ccc(C[C@H]2CN3C(=NC[C@@H]3Cc3ccc(O)cc3)N2CCNC(=O)c2ccc(C)c(Br)c2)cc1	-7.53%		3.26 µM [falling, single point]
CCC(C)c1ccc(OCCn2ccnc2)cc1 (stereo not drawn)			0.58 µM [rising, single point]
O=C(NCc1cc(C(F)(F)F)ccc1F)C1CCC(=O)N(C2CCCCCC2)C1 (stereo not drawn)	57.4%	18.4 µM [rising, single point]	
Cc1ccc(S(=O)(=O)N2CCCC2=O)c(C)c1N(C)S(C)(=O)=O	11.3%		0.58 µM [rising, single point]
C/C(=N\NC(=O)c1cc(-c2ccncc2)nc2ccccc12)c1ccc(OC(F)F)cc1	77.1%	4.61 µM [rising, full curve]	4.11 µM [rising, partial curve, poor fit]
OC(CN1CCCCC1)Cn1c2ccc(Cl)cc2c2cc(Cl)ccc21 (stereo not drawn)	-57.3%	29.1 µM [falling, single point]	20.6 µM [falling, single point]
CCc1ccc2[nH]c(=O)c(CN(CCCN3CCOCC3)C(=O)Nc3ccc(Cl)cc3)cc2c1	19.1%		25.9 µM [rising, single point]
CNC(=O)C1CCC(=O)N1Cc1ccc(C)cc1 (stereo not drawn)	-35.9%	29.1 µM [falling, single point]	29.1 µM [falling, single point]
O=C(c1ccco1)[C@@H]1[C@@H]2C(=O)N(c3ccc(F)cc3)C(=O)[C@@H]2[C@H]2C=Cc3ccccc3N21	-13.6%		
COCCNC(=O)NC(=O)COC(=O)c1cccn1C	-33%	0.82 µM [falling, full curve, poor fit]	1.03 µM [falling, full curve, poor fit]
COc1ccc(/C(N)=N/OC(=O)c2ccc3c(c2)OCO3)cc1	2.88%		0.411 µM [rising, full curve, poor fit]
NC(=O)C1CCN(C2=C(NS(=O)(=O)c3ccc(Br)cc3)C(=O)c3ccccc3C2=O)CC1	-21.8%		
O=C(C1CCCCC1)N1CC(=O)N2CCc3ccccc3C2C1 (stereo not drawn)	-7.63%		10.3 µM [rising, partial curve, poor fit]
O=C(NCc1ccco1)C1CCCN(S(=O)(=O)c2ccccc2)C1 (stereo not drawn)			0.116 µM [falling, full curve, poor fit]
O=C(O)CCn1c(=O)n(CCC(=O)O)c(=O)n(CCC(=O)O)c1=O	-19.2%		18.4 µM [falling, single point]
Cc1nnc(-c2cccc(Br)c2)c2cn(-c3ccccc3)nc12	-7.54%		20.6 µM [rising, partial curve, poor fit]
C[C@]1(C(=O)O)Cc2oncc2C[C@@H]1C(=O)O	-66.7%	32.6 µM [falling, partial curve, poor fit]	
O=C(NC(Cc1ccccc1)c1nc2ccccc2[nH]1)c1ccc(Cl)c([N+](=O)[O-])c1 (stereo not drawn)			29.1 µM [falling, single point]

SMILES	cell number change	AC50 [1]	AC50 [2]
C=CCOC(=O)C1=C(C)NC(=O)NC1c1ccc(OC(=O)c2ccco2)c(OC)c1 (stereo not drawn)	10.7%		6.51 µM [rising, single point]
Cc1csc(SCC(=O)N2CCN(S(=O)(=O)c3ccc(Cl)cc3)CC2)n1			1.46 µM [rising, full curve]
Cc1ccc(S(=O)(=O)N(CC(=O)Nc2cccc([N+](=O)[O-])c2)Cc2ccc(Cl)cc2)cc1	17.7%		
O=C(CSc1nc(C2CC2)nc2ccccc12)N1c2ccccc2Sc2ccc(C(F)(F)F)cc21			0.731 µM [rising, single point]
COc1cccc(C2NC(=O)CCC2[N+](=O)[O-])c1OC (stereo not drawn)	-6.31%		
Cc1cccc2cc(/C=N/NC(=O)c3ccccc3O)c(Cl)nc12	-23%		3.66 µM [rising, partial curve]
COc1ccc(OC)c(CCNC(=O)c2ccc3c(=O)[nH]c4c(C(=O)NC(C)C)sc(=S)n4c3c2)c1	-17.9%		0.82 µM [falling, single point]
COc1ccc(CN(C)C(=O)c2cccc(S(=O)(=O)N3CCN(c4ccccc4)CC3)c2)c(OC)c1OC	8.05%		
CCOc1ccc(N=C2NC(=O)C(CC(=O)O)S2)cc1 (stereo not drawn)	38.2%		
O=C(c1cccc(S(=O)(=O)NCc2ccccc2)c1)N1CCCC1			0.00517 µM [rising, full curve, poor fit]
COC(=O)Cc1c[nH]c2ccc(OCC(O)CNC(C)C)cc12 (stereo not drawn)	2.92%		11.6 µM [falling, single point]
Cn1c2c(c(=O)n(C)c1=O)C(C(F)(F)F)(C(F)(F)F)N=C(c1ccccc1Cl)N2	-1.53%	0.00517 µM [falling, full curve, poor fit]	
CC(/C=C/c1ccccc1F)=N\NC(=O)c1cccc(F)c1			1.46 µM [rising, partial curve]
O=C(Nc1cccc(Oc2ccc3c(c2)C(=O)NC3=O)c1)c1ccco1	36.7%	2.59 µM [rising, full curve]	4.61 µM [rising, single point]
Cc1ccc(NC(=Nc2ccc(Br)cc2)N2CCOCC2)cc1C	13.2%		3.66 µM [rising, full curve]
Cc1ccc(CN(C)C(=O)c2cc(COc3cccc(C(F)(F)F)c3)on2)o1	-55%	32.6 µM [falling, single point]	0.651 µM [rising, full curve]
COc1ccc(OC)c2c(C)cc(NCCN3CCOCC3)nc12	6.64%		1.16 µM [rising, partial curve]
COCCn1c(SCC(=O)Nc2cc(C)on2)nnc1C(C)C	11.8%		
CC(C)(C)c1ccc(OCC(O)CN(CCO)CC(O)Cn2ccc3ccccc32)cc1 (stereo not drawn)	-27.5%		18.4 µM [falling, partial curve]
O=C(NNc1ccc([N+](=O)[O-])cc1[N+](=O)[O-])C1C2CCCCC21 (stereo not drawn)	9.84%		1.46 µM [rising, partial curve]

SMILES	cell number change	AC50 [1]	AC50 [2]
COc1ccc(NC(=O)CSCC(=O)N(C)Cc2c(F)cccc2Cl)cc1	-15.2%		3.26 µM [falling, single point]
Cc1cccc(OCCC(=O)NCC(c2ccco2)N2CCCCC2)c1 (stereo not drawn)	49.2%	29.1 µM [rising, single point]	
CCOC(=O)[C@H]1[C@H]2COc3ccc(OC)cc3[C@@H]2N2C(=O)CN(C)C(=O)[C@@]12C	19.7%		1.64 µM [rising, partial curve, poor fit]
CCN(CC)c1nc2n(c(=O)n1)CCO2	2.73%		0.651 µM [rising, single point]
CC1(C)CCCN(Cc2c(O)ccc3c(=O)c(-c4nc5ccccc5s4)c(N)oc23)C1	20.9%		16.4 µM [falling, single point]
COc1ccccc1-n1nnnc1SCC(=O)Nc1ccc(C)c(N)c1	-4.5%		
O=C(NC1CCCCC1)N(Cc1cc2cc3c(cc2[nH]c1=O)OCCO3)CC1CCCO1 (stereo not drawn)	-27.6%		
CCOC(=O)C1=CC[C@@H](c2ccco2)N(S(=O)(=O)c2ccc(C)cc2)[C@H]1C(=O)OCC	-8.47%	1.16 µM [falling, single point]	
CC1CN(C(=S)NC2CCCC2)CC(C)O1 (stereo not drawn)	2.48%		29.1 µM [falling, single point]
CC(=O)Oc1cccc(NC(=O)c2ccc3c(c2)C(=O)N(CC(C)C)C3=O)c1	-29.8%		0.206 µM [falling, full curve]
CC(=O)Nc1ccc(/C=N/NC(=O)CNS(=O)(=O)c2ccccc2)cc1			29.1 µM [rising, single point]
COc1cccc2cc(C(=O)CS(=O)(=O)c3ccc(Cl)cc3)c(=O)oc12	-13.9%	0.0058 µM [falling, full curve, poor fit]	0.366 µM [falling, full curve]
Cc1ccccc1OCC(=O)OCC(=O)Nc1ccc(Cl)cn1	8.07%	1.84 µM [falling, partial curve]	2.06 µM [falling, partial curve]
CCOC(=O)N1CCN(C(=O)CN(c2ccccc2)S(C)(=O)=O)CC1		3.66 µM [falling, single point]	6.51 µM [falling, partial curve, poor fit]
Nc1ccc(S(=O)(=O)NC2(C(F)(F)F)NC(=O)N(c3ccc(F)cc3)C2=O)cc1 (stereo not drawn)	1.28%		
O=C(Nc1ccc(OCc2ccccc2)cc1)c1cccs1	-3.28%		29.1 µM [falling, single point]
Cc1cc(C(=O)CNCc2ccco2)c(C)n1-c1ccc(F)cc1	-3.22%	0.82 µM [falling, full curve, poor fit]	0.517 µM [falling, full curve, poor fit]
CCOC(=O)c1c(C)oc(C)c(C(=O)OCC)c1=O	10.9%		0.651 µM [falling, full curve, poor fit]
O=C(CNC(=O)N1CC(=O)Nc2ccccc21)Nc1ccccc1F	-4.25%		

Ordered by length of the SMILES (falling): three of the compounds above.
SMILES	cell number change	AC50 [1]	AC50 [2]
COc1ccc(CN(C)C(=O)c2cccc(S(=O)(=O)N3CCN(c4ccccc4)CC3)c2)c(OC)c1OC	8.05%		
COC(=O)Cc1c[nH]c2ccc(OCC(O)CNC(C)C)cc12 (stereo not drawn)	2.92%		11.6 µM [falling, single point]
CCOC(=O)c1c(C)oc(C)c(C(=O)OCC)c1=O	10.9%		0.651 µM [falling, full curve, poor fit]
